This passage reports mCherry results from the supplement of paper PMC8256030.

Each structure is given as a SMILES string. Values joined by “and” are separate entries in the source; they are usually repeats but may differ in a detail not shown here. Identical values can stand only once. Counter-ions that a name gives are not always drawn. The list shows a part of the results. Repeats in this data set agree poorly, so a single value says little.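 HEK293T cells were given each compound shortly before transfection with a reporter in which red mCherry is followed by the SARS-CoV-2 frameshift element and then GFP in the −1 frame, so GFP appears only after frameshifting.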

This experiment relates to SARS-CoV-2 -1 PRF reporter mCherry-FSE-GFP(-1). The experiment can be described thus: mCherry (red) intensity as percent of control; higher = higher upstream reporter expression. The settings on record: 10 µM; 24 h; HEK293T.
Compound `O=C1C2CC3CC1CC(O)(C3)C2` [idramantone] yielded a mCherry of 101%.
Take `CCCCc1ncc(/C=C(\Cc2cccs2)C(=O)O)n1Cc1ccc(C(=O)O)cc1` [eprosartan]: the mCherry was 102% and 90.3%.
In the case of `CO[C@H]1/C=C/O[C@@]2(C)Oc3c(C)c(O)c4c(O)c(c5c(nc6cc(C)ccn65)c4c3C2=O)NC(=O)/C(C)=C\C=C\[C@H](C)[C@H](O)[C@@H](C)[C@@H](O)[C@@H](C)[C@H](OC(C)=O)[C@@H]1C` it was 90.3%; in that of `C/C=C/C1=C(C(=O)O)N2C(=O)[C@@H](NC(=O)[C@H](N)c3ccc(O)cc3)[C@H]2SC1`, 103%.
In turn, `OC(CCCN1CCc2c(c3cc(F)ccc3n2-c2ccc(F)cc2)C1)c1ccc(F)cc1` (stereo not given) [flutroline] registered a mCherry of 57.1%.
Consider `NC[C@H]1O[C@H](O[C@H]2[C@H](O)[C@@H](O[C@H]3O[C@H](CO)[C@@H](O)[C@H](N)[C@H]3O)[C@H](N)C[C@@H]2N)[C@H](O)[C@@H](O)[C@@H]1O`, for which the mCherry is 113%.
Take `CC(=O)CC(c1ccc([N+](=O)[O-])cc1)c1c(O)c2ccccc2oc1=O` (stereo not given): the mCherry stood at 99.9%.
As for `C=C1C[C@H]2[C@@H]3C=C(C)C4=CC(=O)CC[C@]4(C)[C@H]3CC[C@]2(C)[C@@]1(OC(C)=O)C(C)=O` [Melengestrol Acetate], the mCherry was found to be 119%.
Take `CCn1cc(C(=O)O)c(=O)c2cc(F)c(N3CCN(C)CC3)cc21` [Pefloxacine mesylate dihydrate]: the mCherry turned out to be 52.2%.
For the compound `CN/C(=N\CCSCc1nc[nH]c1C)NC#N` [Cimetidine], the mCherry is 114% and 98.6%.
The same measure for `NCCC(O)(P(=O)(O)O)P(=O)(O)O` [pamidronic acid]: 96.8%; for `CN(C)C(=O)C(CC[N@+]1([O-])CC[C@@](O)(c2ccc(Cl)cc2)CC1)(c1ccccc1)c1ccccc1` [loperamide oxide]: 95.2%; for `Clc1ccc(Cn2c(CN3CCCC3)nc3ccccc32)cc1` [clemizole]: 108%.
As for `CN1N=C(C(N)=O)CCC1=O` [medazomide], the mCherry was found to be 113%.
`CN(C)c1cc(NC(=O)CNC(C)(C)C)c(O)c2c1C[C@H]1C[C@H]3[C@H](N(C)C)C(=O)C(C(N)=O)=C(O)[C@@]3(O)C(=O)C1=C2O` [tigecycline] yielded a mCherry of 131%.
The same measure for `CO/N=C(\C(=O)N[C@@H]1C(=O)N2C(C(=O)O)=C(COC(C)=O)CS[C@H]12)c1csc(N)n1` [Cefotaxime Acid]: 63%; for `CONC(=O)Nc1ccc(-c2sc3c(c2CN(C)Cc2ccccc2)c(=O)n(-c2ccccc2)c(=O)n3Cc2c(F)cccc2F)cc1` [sufugolix]: 97.5%; for `CC(C)NNC(=O)COc1ccc(Cl)cc1` [iproclozide]: 86.6%.
The same measure for `Cc1ccc(=O)n(-c2ccccc2)c1` [pirfenidone]: 111%; for `NS(=O)(=O)c1cc(C(=O)NN2C[C@@H]3[C@H]4CC[C@H](C4)[C@@H]3C2)ccc1Cl` [tripamide]: 98.5%.
For `CC(C)c1c(C(=O)Nc2ccccc2)c(-c2ccccc2)c(-c2ccc(F)cc2)n1CC[C@@H](O)C[C@@H](O)CC(=O)O`, the mCherry amounted to 89.6%.
`NC(=O)CC[C@@H]1NC(=O)[C@H](Cc2ccccc2)NC(=O)[C@H](Cc2ccc(O)cc2)NC(=O)[C@@H](N)CSSC[C@@H](C(=O)N2CCC[C@H]2C(=O)N[C@@H](CCCN=C(N)N)C(=O)NCC(N)=O)NC(=O)[C@H](CC(N)=O)NC1=O` [argipressin] registered a mCherry of 95.9%.
As for `Cc1cccc(/C=N/N2CCN(C(c3ccccc3)c3ccccc3)CC2)n1` [ropizine], the mCherry is 68.8%.
Regarding `CCn1cc(C(=O)O)c(=O)c2cc(F)c(N3CCNC(C)C3)c(F)c21` (stereo not given) [lomefloxacin], the mCherry is 107% and 105%.
For the compound `CC(=O)Oc1cc2c(s1)CCN(C(C(=O)C1CC1)c1ccccc1F)C2` (stereo not given) [prasugrel], the mCherry was 117%.
`Cc1[nH]c(C)c(Cl)c(=O)c1Cl` registered a mCherry of 110%.
In turn, `CC(=O)Nc1ccc(O)cc1` [paracetamol] registered a mCherry of 99.9%.
In the case of `NC(=O)OCC(COC(N)=O)c1ccccc1` [felbamate] it was 96.9%; in that of `CCCCOc1ccc(C(=O)CCN2CCCCC2)cc1` [dyclonine], 84%.
In the case of `COCCCOc1cc(C[C@@H](C[C@H](N)[C@@H](O)C[C@H](C(=O)NCC(C)(C)C(N)=O)C(C)C)C(C)C)ccc1OC`, the mCherry turned out to be 148%.
For `Nc1ncnc2nc[nH]c12` [Leuco-4], the mCherry came to 149%.
In the case of `CC(=O)Nc1ccc(S(=O)(=O)c2ccc(NC(C)=O)cc2)cc1` [acedapsone] it was 81.4%.
For `CC[C@]12CN3CCc4c([nH]c5ccccc45)[C@@](C(=O)OC)(c4cc5c(cc4OC)N(C=O)[C@H]4[C@@](O)(C(=O)OC)[C@H](OC(C)=O)[C@]6(CC)C=CCN7CC[C@]54[C@@H]76)C[C@@H](C3)[C@H]1O2` [vinformide], the mCherry turned out to be 106%.
The compound `CC(C)C(=O)OCC(=O)[C@@]12O[C@H](C3CCCCC3)O[C@@H]1C[C@H]1[C@@H]3CCC4=CC(=O)C=C[C@]4(C)[C@H]3[C@@H](O)C[C@@]12C` [Ciclesonide] showed a mCherry of 90.8%.
For `CN(CCOc1ccc(CC2SC(=O)NC2=O)cc1)c1ccccn1` (stereo not given), the mCherry worked out at 90.2%.
In the case of `COc1cc(C(=O)NS(=O)(=O)c2ccccc2C)ccc1Cc1cn(C)c2ccc(NC(=O)OC3CCCC3)cc12` [zafirlukast], the mCherry stood at 77.5%.
`CCCCC(CC)COC(=O)C(C#N)=C(c1ccccc1)c1ccccc1` (stereo not given) [octocrilene]: the mCherry came out at 20.4%.
`CCN(CC)CCS(=O)(=O)[C@@H]1CCN2C(=O)c3coc(n3)CC(=O)C[C@H](O)/C=C(C)/C=C/CNC(=O)/C=C/[C@@H](C)[C@@H](C(C)C)OC(=O)[C@@H]12` [dalfopristin] had a mCherry of 103%.
The compound `CCN(CC)CCNC(=O)c1cc(Br)c(N)cc1OC` [Bromopride] registered a mCherry of 80.2%.
`OC(CCN1CCCC1)(c1ccccc1)C1CCCCC1` (stereo not given) [procyclidine] returned a mCherry of 98%.
